# Test results from the supplement of paper PMC4604168 (melanoma cell lines).
# Some of the results follow. Single values are uncertain, as repeats are few or missing.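 Cells were imaged in 1,536-well plates, and nuclei stained with an antibody against cleaved PARP were counted against all DNA-stained nuclei to give the apoptosis fraction. Screening doses were chosen to leave most cells alive, and resting and induced cleaved-PARP levels differ strongly between cell lines.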
# System: CBRC017 (line from a melanoma biopsy)
# Assay: cleaved PARP positive nuclei fraction relative to DMSO control; melanoma cells; higher = more apoptosis
# Conditions: library dose: low library concentration; 72 h
row,SMILES,cleaved PARP positive nuclei fraction
1,"O=c1[nH]nc(Sc2ncc([N+](=O)[O-])s2)n1-c1ccc2c(c1)OCCO2 + NCC(=O)Nc1ccc(-n2nc(C(F)(F)F)cc2-c2ccc3c(ccc4ccccc43)c2)cc1 [OSU03012] (first compound 0.2 µM, partner dose 1 µM)",93.5%
2,"N#CC[C@H](C1CCCC1)n1cc(-c2ncnc3[nH]ccc23)cn1 [ruxolitinib] + CN(C)S(=O)(=O)c1ccc2c(c1)/C(=C/c1cc3c([nH]1)CCCC3)C(=O)N2 [SU6656] (first compound 1 µM, partner dose 0.4 µM)",110%
3,"CC[C@]1(O)C[C@H]2CN(CCc3c([nH]c4ccccc34)[C@@](C(=O)OC)(c3cc4c(cc3OC)N(C=O)[C@H]3[C@@](O)(C(=O)OC)[C@H](OC(C)=O)[C@]5(CC)C=CCN6CC[C@]43[C@@H]65)C2)C1 [vincristine] + O=C(Nc1cccc(Cl)c1)Nc1ncc(CCNc2ncnc3ccsc23)s1 [SNS314] (first compound 0.0001 µM, partner dose 0.0008 µM)",143%
